Results reported in PubChem BioAssay AID504647 (National Center for Advancing Translational Sciences (NCATS), 2011).
This is one part of the list. Shown are side measurements of this screen, not its main read-out; they come without a call.

Experiment: Assay for Inhibitors of Influenza NS1 Protein Function: Influenza virus replication assay in MDCK cells infected with virus A/PR/8/34
Details: MDCK infected influenza A/PR/8/34, virus titer TCID50; measured here: MDCK cell viability; at 5 µM; stronger effect = higher value
From the text: NIH Chemical Genomics Center [NCGC]
NIH Molecular Libraries Probe Centers Network [MLPCN]
Assay Submitter (PI): Daniel Engel
Influenza is a world-wide public health problem and emerging forms of the virus have the potential to cause a pandemic of equal or greater magnitude to the outbreaks recorded in 1918, 1957 or 1968. Vaccine development is proceeding and there also exist two classes of anti-influenza compounds. However these therapeutic modalities are neither fully effective nor widely enough available to fulfill global needs. In addition their potential usefulness against newly emergent strains is not known. Efforts are needed to develop novel agents against influenza virus, including broad-spectrum agents. Identification of small molecules that inhibit NS1 function either directly or by interfering with specific cellular pathways may be a key to increasing our defense against the virus.
We have miniaturized and optimized a cell based assay in which NS1 from influenza A is expressed in the budding yeast S. cerevisiae. NS1 is a multi-functional protein that counters the host innate immune response and facilitates viral versus cellular gene expression. Expression of NS1 causes a pronounced slow growth phenotype in yeast due to its intrinsic molecular activities. Small molecules that suppress the slow growth phenotype can be identified by a straightforward growth recovery assay using optical density (OD) as the measurement. The same yeast strain not expressing NS1 was used as positive control in the yeast growth recovery assay. The present experiment attempted to confirm the activity of compounds observed in the primary screen.
This assay confirms the activity of compounds from the primary screen by measuring their affect on viral replication.
Protocol details are given in Basu et al. J. Vir. 83(4):1881-1891 2009. […] All media and sera were from Invitrogen. […] Confluent cell monolayers were infected at a multiplicity of infection (MOI) of 0.1 for 48 h in the presence or absence of 5uM compound. Compounds were added at the beginning of infection and were present throughout the infection. After 48 h virus titers were determined by standard TCID50 analysis.

| SMILES | viability [%] |
| --- | --- |
| CCOCCCNS(=O)(=O)c1ccc(NC(=O)Cc2c(F)cccc2Cl)cc1 | 99.3 |
| CC(C)(C)c1nnc2sc(SCC(=O)c3ccc(Cl)cc3)nn2c1=O | 101 |
| CCn1c2ccccc2c2cc(NC(=O)COC(=O)c3cccc(S(=O)(=O)NC)c3)ccc21 | 96.4 |
| Cc1cccc(NC(=O)c2cc(NC(=O)c3ccccc3)ccc2N2CCCCC2)c1 | 101 |
| CCCn1c(CCNc2nc(-c3ccc(Cl)c([N+](=O)[O-])c3)cs2)nc2cc(Cl)c(Cl)cc21 | 99.1 |
| Cc1c(Cl)cccc1NC(=O)CSc1nncn1-c1ccccn1 | 97.3 |
| CCOC(=O)N1CCN(S(=O)(=O)N2CCCC(C(=O)NCCCN3CC(C)CC(C)C3)C2)CC1 (stereo not given) | 98 |
| Cc1ccc(S(=O)(=O)Nc2ccccc2-c2ccccc2NS(=O)(=O)c2ccc(C)cc2)cc1 | 99.8 |
| CC(C)(C)NC(=O)c1ccccc1-c1nc2ccccc2s1 | 102 |
| Cc1ccc(NC(=O)CC(=O)c2ccc([N+](=O)[O-])cc2)cc1S(=O)(=O)Nc1cccc(Cl)c1 | 105 |
| O=C(CN1CCCCCC1=O)OCc1ncc(-c2ccccc2)o1 | 103 |
| Cc1ccc(C(=O)Nc2ccccc2C(=O)O)cc1S(=O)(=O)NC1CCCCC1 | 99.5 |
| Cc1ccc(N(CC(=O)N/N=C/c2ccco2)S(=O)(=O)c2ccccc2)cc1 | 99.7 |
| COc1cc(/C=N/NC(=O)c2ccc(CSc3nc4ccccc4[nH]3)cc2)cc(OC)c1OC | 103 |
| CCOC(=O)c1ccc(NC(=O)CSc2nc(C)cc(=O)[nH]2)cc1 | 96.7 |
| CC(C)(C)NC(=O)NC(=O)CN1CCN(c2cccc(Cl)c2)CC1 | 99.2 |
| CC1(c2ccc3ccccc3c2)NC(=O)N(CC(=O)Nc2cccc(S(=O)(=O)N3CCOCC3)c2)C1=O (stereo not given) | 101 |
| Cc1ccc(-c2csc(N3CCC(NS(=O)(=O)c4ccc5c(c4)OCCO5)CC3)n2)cc1 | 106 |
| COCCn1nnnc1C(c1cc2ccc(OC)cc2[nH]c1=O)N1CCN(C2CCCCC2)CC1 (stereo not given) | 95.9 |
| O=C(C1=NN(c2ccccc2)C2C(=O)N(c3ccccc3Cl)C(=O)C12)c1ccccc1 (stereo not given) | 102 |

A stretch from the list above, for reference:

| SMILES | viability [%] |
| --- | --- |
| COc1cc(/C=N/NC(=O)c2ccc(CSc3nc4ccccc4[nH]3)cc2)cc(OC)c1OC | 103 |
| CCOC(=O)c1ccc(NC(=O)CSc2nc(C)cc(=O)[nH]2)cc1 | 96.7 |

More structures follow:

| SMILES | viability [%] |
| --- | --- |
| COc1ccc(/C=C\C(=O)NCc2ccc3c(c2)cc(C)n3C)cc1OC | 97.8 |
| O=C(Nc1ccc2c(c1)CCC2)c1cc(S(=O)(=O)Nc2ccc(F)cc2)c(Cl)cc1Cl | 101 |
| COCCN1CCn2c(nc3cc(NC(=O)c4ccc(OC)cc4)ccc32)C1 | 105 |
| COc1ccc(S(=O)(=O)N2CCCCC2)cc1NS(=O)(=O)c1cc(Cl)ccc1Cl | 96.9 |
| Cc1ccccc1-c1nc(CS(=O)CC(=O)N2CCC3(CC2)OCCO3)c(C)o1 (stereo not given) | 102 |
| COc1cc(C2C(C#N)=C(N)Oc3c2ccc2ccccc32)ccc1OCC(=O)Nc1cccc(C)c1 (stereo not given) | 103 |
| Cc1ccc(S(=O)(=O)N2CCC(=O)N(C(COCc3ccc(Cl)cc3Cl)Cc3ccccc3)CC2)cc1 (stereo not given) | 105 |
| CN1CCN(C2=Nc3ccccc3Oc3ccc(Cl)cc32)CC1 | 96.6 |
| C[C@@H](C(=O)Nc1ccc2ccccc2c1)[C@@H]1C[C@@]1(C)[C@@H](NC(=O)c1ccccc1)c1ccccc1 | 102 |
| CCOC(=O)N1CCC(NC(=O)c2ccc3c(c2)sc2nc(-c4ccccc4)cn23)CC1 | 102 |
| COc1ccc(-c2cnnn2-c2ccc(NC(=O)c3ccc(S(=O)(=O)N4CCCCC4)cc3)cc2)cc1OC | 99.6 |
| Cc1ccc(S(=O)(=O)Nc2ccc3nc(-c4cccn4C)[nH]c3c2)cc1 | 100 |
| C=CCn1c(SCC2=C(C(=O)OCC)C(C)NC(=O)N2)nnc1C1CCCCC1 (stereo not given) | 99.7 |
| COc1ccccc1/C=C1\CCCC2=C1Nc1nnnn1C2c1ccccc1OC (stereo not given) | 102 |
| CCOc1ccc(C2=Nc3ccccc3C(c3ccc(N4CCOCC4)cc3)=NN2)cc1 | 103 |
| CCCC12C(=O)C(C)(C(c3ccccc3)=C1c1ccccc1)C1C(=O)N(c3ccc(C)cc3)C(=O)C12 (stereo not given) | 102 |
| Cc1ccc(F)c([C@H]2[C@H]3C=CC[C@@H](C)[C@@H]3C(=O)N2Cc2ccccc2)c1 | 102 |
| O=C(NCc1ccc2[nH]c3c(c2c1)CCCC3)c1ccc(S(=O)(=O)N2CCCC2)cc1 | 89.4 |
| CN(C)c1ccc(NC(=O)CSCc2nc3c(nnn3Cc3ccc(F)cc3)c(=O)[nH]2)cc1 | 99.4 |
| CC(C)CC(C(=O)Nc1oc(-c2ccco2)c(-c2ccco2)c1C#N)N1C(=O)c2ccccc2C1=O (stereo not given) | 103 |
